Assay results: publication PMC2842432
No constants are given. Whether binding was seen depends on the method and setting. Binding seen in cells or lysates may run through a third protein. Some entries that bind do so weakly or less than the wild type. Tags and fused reporters may be left off the sequences shown.

How the values were obtained:
[1] = target: T1, FSH-tagged Gal-TRβ (aa 189-461) expressed in HEK293 cells (human) (UniProt P10828); experiment: co-IP; HEK293 cells co-transfected with FLAG-HIPK3 and FSH-tagged Gal fusion; IP buffer (50 mM Tris pH 8, 150 mM NaCl, 1 mM EDTA, 0.75% NP-40, 1 mM DTT); Gal fusion captured on Strep-Tactin, 3 washes; FLAG-M2 Western blot
T1 sequence: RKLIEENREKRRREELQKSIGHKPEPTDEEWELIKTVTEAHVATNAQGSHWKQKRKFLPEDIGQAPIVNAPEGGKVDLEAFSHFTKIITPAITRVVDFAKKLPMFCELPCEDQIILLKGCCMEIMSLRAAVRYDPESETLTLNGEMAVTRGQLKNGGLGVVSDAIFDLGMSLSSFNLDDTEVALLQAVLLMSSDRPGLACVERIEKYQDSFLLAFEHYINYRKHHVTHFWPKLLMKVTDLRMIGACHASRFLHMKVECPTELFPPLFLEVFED

[2] = target: T2, FSH-tagged Gal-TRβ_(ΔAF2) (aa 189-451) expressed in HEK293 cells (human) (UniProt P10828); experiment: as above
T2 sequence: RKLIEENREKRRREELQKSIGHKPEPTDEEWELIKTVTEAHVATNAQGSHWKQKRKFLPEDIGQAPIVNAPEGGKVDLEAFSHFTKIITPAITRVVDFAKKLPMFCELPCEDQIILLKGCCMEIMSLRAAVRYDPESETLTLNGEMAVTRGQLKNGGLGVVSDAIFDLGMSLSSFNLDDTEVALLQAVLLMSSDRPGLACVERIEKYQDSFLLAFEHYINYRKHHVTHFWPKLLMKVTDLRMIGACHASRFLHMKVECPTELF

binding [1]: binds
binding [2]: binds
B1: FLAG-HIPK3 (2-1191) (enzyme, UniProt O88850 2-1191)
chain: ASQVLVYPPYVYQTQSSAFCSVKKLKVEPSGCVFQERACPQIHVNGRHFGNPLPSTKGSAFQTKIPFSKPRGHSFSLQAGAIVVKDTAGATKVIAAQAQQAGVEAPRAVVWRNRLHFLGGPQRCGLKRKSEELDNHSGAMQIVDELSILPAMLQTNMGNPVTVVTATTGSKQNCTSGEGDYQLVQHEVLCSVKNTYEVLDFLGRGTFGQVVKCWKRGTNEIVAIKILKNHPSYARQGQIEVSILARLSTENADEYNFVRAYECFQHRNHTCLVFEMLEQNLYDFLKQNKFSPLPLKVIRPVLQQVATALKKLKSLGLIHADLKPENIMLVDPVRQPYRVKVIDFGSASHVSKTVCSTYLQSRYYRAPEIILGLPFCEAIDMWSLGCVIAELFLGWPLYPGALEYDQIRYISQTQGLPGEQLLNVGTKSTRFFCRETDMSHSGWRLKTLEEHEAETGMKSKEARKYIFNSLDDIVHVNTVMDLEGSDLLAEKADRREFVSLLKKMLLIDADLRITPIETLNHPFVSMKHLLDFPHSSHVKSCFHIMDICKSPSSCETNNHSKMSLLRPVASNGTAALAANFTKVGTLRSQALTTSAHSVVHHGIPLQAGTAQFGCGDAFHQTLIICPPAIQGIPAAHGKPTSYSIRVDNTVPLVTQAPAVQPLQIRPGVLSQTWSGRTQQMLIPAWQQVTPMAPAAATLTSEGMAGSQRLGDWGKMIPHSNHYNSVMPPPLLTNQITLSAPQPISVGIAHVVWPQPATTKKNKLCQNRSNSLQNTNVPHSAFISPKIISGKEVEEVSCVETQDNHTSEGEARTCHEASVRQDSSVSDKQRQTIIIADSPSPAVSVITISSDTDDEETSPRPSLRECKGSLDCEACQSTLNIDRMCSLSSPDSTLSTSSSGQSSPSPCKRPNSMSDDEQESGCETVDGSPTSDSSGHDSPFAESSFVEDTPQNPELGTCAGTEAKPALSTAVEPPVGTERGLNVDAHMANTDSTCQPLTKGQPAPGKLNQPSASAARQQKPTSAFQQQHLNLSQVQHFGTGHQEWNGNFGHRRQQAYIPTSVTSNPFTLSHGSPNHTAVHAHLAGSAHLGGQPTLLPYPPSTALSSAAPVAHLLASPCTSRPMLQHPTYNISHPSGIVHQVPVGINPRLLPSPTIHQTQYKPIFPPHSYIAASPAYTGFPLSPTKLSQYPYM
